Results: the supplement of paper PMC6411743
± gives the standard deviation of the averaged measurements. The list shows a part of the results, in another mix than the full data.

Chains of the proteins cited; added tags and fusions are not shown. Lines headed by an entry give the natural chain unless they say otherwise; changes in a name come on top.
UniProt Q9UNZ2: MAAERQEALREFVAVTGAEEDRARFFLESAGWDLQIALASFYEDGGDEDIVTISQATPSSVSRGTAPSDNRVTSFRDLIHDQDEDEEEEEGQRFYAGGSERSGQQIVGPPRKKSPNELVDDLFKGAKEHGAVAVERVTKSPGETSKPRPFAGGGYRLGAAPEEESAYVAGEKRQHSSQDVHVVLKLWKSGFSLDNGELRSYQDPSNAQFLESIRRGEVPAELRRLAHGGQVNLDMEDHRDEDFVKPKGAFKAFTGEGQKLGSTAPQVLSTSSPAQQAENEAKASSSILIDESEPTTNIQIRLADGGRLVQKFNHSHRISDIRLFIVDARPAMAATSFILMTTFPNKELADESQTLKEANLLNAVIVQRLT
UniProt Q9Y2W1: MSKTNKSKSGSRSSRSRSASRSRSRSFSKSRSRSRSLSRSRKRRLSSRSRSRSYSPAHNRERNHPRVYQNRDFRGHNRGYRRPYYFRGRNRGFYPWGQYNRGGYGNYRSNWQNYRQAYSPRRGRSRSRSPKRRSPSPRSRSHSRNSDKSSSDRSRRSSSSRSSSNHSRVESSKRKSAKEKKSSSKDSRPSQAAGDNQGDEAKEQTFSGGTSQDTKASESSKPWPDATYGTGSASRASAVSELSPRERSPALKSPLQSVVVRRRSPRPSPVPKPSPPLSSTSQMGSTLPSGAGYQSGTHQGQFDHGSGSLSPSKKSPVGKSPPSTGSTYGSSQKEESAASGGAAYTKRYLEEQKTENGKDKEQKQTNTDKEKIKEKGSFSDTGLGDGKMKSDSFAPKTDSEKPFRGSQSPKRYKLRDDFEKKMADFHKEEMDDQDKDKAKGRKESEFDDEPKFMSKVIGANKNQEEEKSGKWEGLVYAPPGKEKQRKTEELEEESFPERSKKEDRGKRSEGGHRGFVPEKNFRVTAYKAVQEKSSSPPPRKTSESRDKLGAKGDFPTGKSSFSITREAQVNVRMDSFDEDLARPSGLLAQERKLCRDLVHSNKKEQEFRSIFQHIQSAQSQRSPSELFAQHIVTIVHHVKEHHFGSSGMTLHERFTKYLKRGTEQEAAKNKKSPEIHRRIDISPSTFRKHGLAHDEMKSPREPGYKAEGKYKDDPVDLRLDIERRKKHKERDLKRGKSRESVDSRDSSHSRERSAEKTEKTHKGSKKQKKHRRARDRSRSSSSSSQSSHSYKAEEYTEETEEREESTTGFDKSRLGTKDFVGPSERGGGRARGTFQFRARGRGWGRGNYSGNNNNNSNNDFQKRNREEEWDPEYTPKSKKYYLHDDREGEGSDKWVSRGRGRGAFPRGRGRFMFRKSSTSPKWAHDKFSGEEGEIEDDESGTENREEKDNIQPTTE
UniProt Q9UQE7: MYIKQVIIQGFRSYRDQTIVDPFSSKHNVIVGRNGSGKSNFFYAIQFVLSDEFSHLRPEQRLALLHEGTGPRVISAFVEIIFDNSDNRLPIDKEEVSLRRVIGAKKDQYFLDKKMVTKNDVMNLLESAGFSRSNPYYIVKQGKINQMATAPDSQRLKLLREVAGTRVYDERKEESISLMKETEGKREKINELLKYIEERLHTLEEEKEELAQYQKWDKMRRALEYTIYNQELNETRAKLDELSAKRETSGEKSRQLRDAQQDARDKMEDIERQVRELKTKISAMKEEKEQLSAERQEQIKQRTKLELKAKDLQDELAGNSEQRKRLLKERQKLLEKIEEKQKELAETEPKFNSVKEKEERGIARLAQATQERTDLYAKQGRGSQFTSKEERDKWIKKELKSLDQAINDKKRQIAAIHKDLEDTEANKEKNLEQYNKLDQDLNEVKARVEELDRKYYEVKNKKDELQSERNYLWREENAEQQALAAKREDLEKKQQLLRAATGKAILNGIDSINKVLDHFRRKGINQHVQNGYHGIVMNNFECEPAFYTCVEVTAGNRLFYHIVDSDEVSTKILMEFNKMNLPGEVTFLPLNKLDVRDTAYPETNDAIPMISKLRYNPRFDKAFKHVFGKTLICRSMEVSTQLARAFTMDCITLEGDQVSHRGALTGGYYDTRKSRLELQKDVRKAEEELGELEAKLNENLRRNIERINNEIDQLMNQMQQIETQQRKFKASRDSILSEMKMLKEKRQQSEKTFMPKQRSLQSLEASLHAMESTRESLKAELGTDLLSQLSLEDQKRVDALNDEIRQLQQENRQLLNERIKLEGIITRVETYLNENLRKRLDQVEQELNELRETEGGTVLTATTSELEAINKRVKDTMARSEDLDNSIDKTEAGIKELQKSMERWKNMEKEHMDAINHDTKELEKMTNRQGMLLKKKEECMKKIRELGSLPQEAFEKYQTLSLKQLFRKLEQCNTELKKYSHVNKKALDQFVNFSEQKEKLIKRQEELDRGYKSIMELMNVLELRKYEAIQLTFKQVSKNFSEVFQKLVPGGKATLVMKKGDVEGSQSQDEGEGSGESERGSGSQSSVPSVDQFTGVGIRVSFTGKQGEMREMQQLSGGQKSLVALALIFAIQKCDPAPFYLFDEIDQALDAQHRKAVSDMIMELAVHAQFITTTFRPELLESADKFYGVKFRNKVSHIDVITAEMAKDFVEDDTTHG
UniProt Q9Y289: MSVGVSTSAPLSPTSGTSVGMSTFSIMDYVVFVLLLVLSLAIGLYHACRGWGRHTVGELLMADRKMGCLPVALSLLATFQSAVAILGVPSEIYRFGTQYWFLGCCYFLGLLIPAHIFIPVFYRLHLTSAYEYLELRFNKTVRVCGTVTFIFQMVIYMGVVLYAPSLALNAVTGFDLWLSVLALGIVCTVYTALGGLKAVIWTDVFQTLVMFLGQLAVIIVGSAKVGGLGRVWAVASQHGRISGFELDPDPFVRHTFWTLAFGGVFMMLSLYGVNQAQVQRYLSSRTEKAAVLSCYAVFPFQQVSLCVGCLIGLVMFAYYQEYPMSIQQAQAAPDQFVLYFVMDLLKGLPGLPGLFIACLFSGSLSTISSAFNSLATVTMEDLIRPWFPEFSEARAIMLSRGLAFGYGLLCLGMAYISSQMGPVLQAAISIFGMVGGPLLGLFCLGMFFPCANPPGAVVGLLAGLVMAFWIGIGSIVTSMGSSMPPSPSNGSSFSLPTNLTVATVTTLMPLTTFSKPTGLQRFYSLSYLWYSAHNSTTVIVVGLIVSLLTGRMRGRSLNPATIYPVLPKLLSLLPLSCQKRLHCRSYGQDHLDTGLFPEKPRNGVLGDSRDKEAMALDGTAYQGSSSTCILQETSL
UniProt Q9UNW1: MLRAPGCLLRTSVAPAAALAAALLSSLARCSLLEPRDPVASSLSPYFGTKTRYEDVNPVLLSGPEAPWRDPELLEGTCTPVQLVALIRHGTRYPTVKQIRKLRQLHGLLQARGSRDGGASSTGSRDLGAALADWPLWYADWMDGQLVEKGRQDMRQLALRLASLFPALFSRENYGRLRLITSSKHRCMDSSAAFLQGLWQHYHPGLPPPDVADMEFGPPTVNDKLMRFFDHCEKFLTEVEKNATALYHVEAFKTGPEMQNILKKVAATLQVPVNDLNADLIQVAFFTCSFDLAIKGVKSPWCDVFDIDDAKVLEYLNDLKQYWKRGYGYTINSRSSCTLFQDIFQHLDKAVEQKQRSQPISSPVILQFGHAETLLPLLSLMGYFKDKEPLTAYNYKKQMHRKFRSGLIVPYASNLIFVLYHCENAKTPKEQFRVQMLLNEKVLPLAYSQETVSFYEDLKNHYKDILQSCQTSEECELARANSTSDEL
UniProt Q9UIJ7: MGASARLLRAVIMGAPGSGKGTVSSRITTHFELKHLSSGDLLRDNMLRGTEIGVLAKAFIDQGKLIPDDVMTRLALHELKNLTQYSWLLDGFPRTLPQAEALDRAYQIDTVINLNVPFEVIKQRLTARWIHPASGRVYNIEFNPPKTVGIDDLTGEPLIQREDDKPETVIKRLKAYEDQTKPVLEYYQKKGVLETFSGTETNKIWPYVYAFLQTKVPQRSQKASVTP
UniProt Q9UBS4: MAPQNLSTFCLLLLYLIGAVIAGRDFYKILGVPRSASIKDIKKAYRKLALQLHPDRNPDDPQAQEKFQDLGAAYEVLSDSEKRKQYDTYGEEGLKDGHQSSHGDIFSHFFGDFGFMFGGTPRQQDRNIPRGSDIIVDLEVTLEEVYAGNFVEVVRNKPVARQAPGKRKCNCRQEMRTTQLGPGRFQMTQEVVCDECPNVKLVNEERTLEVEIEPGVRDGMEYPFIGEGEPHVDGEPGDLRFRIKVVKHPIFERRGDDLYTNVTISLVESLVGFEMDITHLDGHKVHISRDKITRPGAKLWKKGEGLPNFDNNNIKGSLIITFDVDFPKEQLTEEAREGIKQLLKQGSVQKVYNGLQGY
UniProt Q9Y2T2: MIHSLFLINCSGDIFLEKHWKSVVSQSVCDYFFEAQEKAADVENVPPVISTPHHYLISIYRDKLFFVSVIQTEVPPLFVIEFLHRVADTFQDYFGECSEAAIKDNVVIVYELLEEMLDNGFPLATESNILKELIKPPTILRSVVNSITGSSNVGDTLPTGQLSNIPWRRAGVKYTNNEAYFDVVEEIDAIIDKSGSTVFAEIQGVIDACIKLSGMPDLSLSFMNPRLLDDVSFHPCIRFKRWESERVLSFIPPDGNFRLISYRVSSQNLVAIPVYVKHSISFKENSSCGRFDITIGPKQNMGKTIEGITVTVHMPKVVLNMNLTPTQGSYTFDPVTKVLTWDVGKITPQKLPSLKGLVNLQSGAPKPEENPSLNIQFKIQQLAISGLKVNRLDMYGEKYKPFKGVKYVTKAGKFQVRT
UniProt Q9UK76: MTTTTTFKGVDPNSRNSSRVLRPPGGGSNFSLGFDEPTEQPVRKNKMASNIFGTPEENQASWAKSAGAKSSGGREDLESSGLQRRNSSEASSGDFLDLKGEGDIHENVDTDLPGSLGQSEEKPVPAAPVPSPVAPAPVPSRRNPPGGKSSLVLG
UniProt Q9UEY8: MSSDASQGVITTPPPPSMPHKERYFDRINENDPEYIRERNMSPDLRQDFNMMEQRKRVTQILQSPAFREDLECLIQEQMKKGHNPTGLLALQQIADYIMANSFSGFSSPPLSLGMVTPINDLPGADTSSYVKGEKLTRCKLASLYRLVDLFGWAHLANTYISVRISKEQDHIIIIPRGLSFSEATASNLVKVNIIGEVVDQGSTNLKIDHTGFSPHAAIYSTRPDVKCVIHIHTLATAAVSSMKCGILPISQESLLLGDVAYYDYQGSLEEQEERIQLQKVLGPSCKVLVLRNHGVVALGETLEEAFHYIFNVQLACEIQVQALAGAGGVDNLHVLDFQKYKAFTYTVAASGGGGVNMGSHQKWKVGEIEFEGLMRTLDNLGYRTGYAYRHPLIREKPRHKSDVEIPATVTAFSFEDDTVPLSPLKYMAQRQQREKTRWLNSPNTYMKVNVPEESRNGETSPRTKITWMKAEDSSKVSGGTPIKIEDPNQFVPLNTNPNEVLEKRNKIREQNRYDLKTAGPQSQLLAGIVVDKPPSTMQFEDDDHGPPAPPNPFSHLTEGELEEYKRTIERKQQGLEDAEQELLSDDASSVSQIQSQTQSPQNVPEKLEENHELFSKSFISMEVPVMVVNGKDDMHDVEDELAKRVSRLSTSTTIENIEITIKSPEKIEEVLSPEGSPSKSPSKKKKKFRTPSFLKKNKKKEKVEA
UniProt Q9UNX4: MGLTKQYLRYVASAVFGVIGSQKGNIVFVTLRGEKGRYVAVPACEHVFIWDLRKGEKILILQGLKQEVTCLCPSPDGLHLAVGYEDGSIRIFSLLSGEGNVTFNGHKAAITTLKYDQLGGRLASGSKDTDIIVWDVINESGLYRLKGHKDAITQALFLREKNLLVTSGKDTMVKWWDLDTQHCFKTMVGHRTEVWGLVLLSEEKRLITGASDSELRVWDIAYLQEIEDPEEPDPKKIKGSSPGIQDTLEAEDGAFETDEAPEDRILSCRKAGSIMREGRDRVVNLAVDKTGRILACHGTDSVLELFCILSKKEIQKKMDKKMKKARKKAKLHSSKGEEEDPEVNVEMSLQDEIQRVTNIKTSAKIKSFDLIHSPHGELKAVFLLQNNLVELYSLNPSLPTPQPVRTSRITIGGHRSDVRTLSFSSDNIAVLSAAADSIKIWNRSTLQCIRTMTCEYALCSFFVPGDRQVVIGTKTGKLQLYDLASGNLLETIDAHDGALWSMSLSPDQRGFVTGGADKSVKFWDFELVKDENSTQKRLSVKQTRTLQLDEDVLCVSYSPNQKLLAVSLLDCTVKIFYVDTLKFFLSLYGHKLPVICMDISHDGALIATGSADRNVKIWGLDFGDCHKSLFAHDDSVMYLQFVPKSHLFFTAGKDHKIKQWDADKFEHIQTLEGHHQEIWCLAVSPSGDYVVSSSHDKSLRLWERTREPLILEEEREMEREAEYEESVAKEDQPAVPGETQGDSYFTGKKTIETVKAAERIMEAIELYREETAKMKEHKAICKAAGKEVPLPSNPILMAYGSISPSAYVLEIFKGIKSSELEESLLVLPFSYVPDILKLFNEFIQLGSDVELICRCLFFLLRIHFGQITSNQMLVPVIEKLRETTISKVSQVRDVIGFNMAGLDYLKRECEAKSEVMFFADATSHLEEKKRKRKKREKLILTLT

Compound: Nc1ncnc2c1ncn2[C@@H]1O[C@H](COP(=O)(O)OP(=O)(O)NP(=O)(O)O)[C@@H](O)[C@H]1O [adenylyl imidodiphosphate]
Test: NP40-soluble protein abundance relative to vehicle (solubility fold change) (ratio); higher = more soluble protein in presence of AMP-PNP
Summary of the method: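 Jurkat crude lysate (Dounce-homogenised) was treated with eight concentrations from 0.1 to 10 mM for 10 min at room temperature, then 3 min at 37 °C. It was solubilised with 0.8% NP40 and benzonase (60 min, 4 °C) and ultracentrifuged, and the supernatant was TMT-labelled for LC-MS/MS. Intensities were vsn-normalised, and the value is the fold change against the NP40-processed vehicle per replicate, from three independent experiments.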

Target | NP40-soluble protein abundance (concentration: 1mM) | NP40-soluble protein abundance (concentration: 2mM) | NP40-soluble protein abundance (concentration: 4mM) | NP40-soluble protein abundance (concentration: 6mM) | NP40-soluble protein abundance (concentration: 8mM) | NP40-soluble protein abundance (concentration: 10mM)
NOTCH3 (UniProt Q9UM47) | 0.977 ± 0.029 | 1.02 ± 0.067 | 0.992 ± 0.022 | 0.974 ± 0.035 | 0.97 ± 0.03 | 0.963 ± 0.039
NSFL1C (UniProt Q9UNZ2) | 0.977 ± 0.023 | 1.02 ± 0.047 | 0.9704 ± 0.0086 | 0.954 ± 0.036 | 0.941 ± 0.011 | 0.9341 ± 0.005
THRAP3 (UniProt Q9Y2W1) | 1.11 ± 0.014 | 1.23 ± 0.1 | 1.2 ± 0.034 | 1.31 ± 0.044 | 1.32 ± 0.028 | 1.41 ± 0.03
UniProt Q9UQ13 and related entries | 1 ± 0.0038 | 1.03 ± 0.032 | 0.988 ± 0.017 | 0.982 ± 0.015 | 0.986 ± 0.013 | 0.981 ± 0.027
SMC3 (UniProt Q9UQE7) | 1.02 ± 0.033 | 1.02 ± 0.015 | 1 ± 0.03 | 1.03 ± 0.034 | 1.01 ± 0.039 | 1.05 ± 0.062
MRTO4 (UniProt Q9UKD2) | 1.05 ± 0.07 | 1.09 ± 0.09 | 1.1 ± 0.047 | 1.16 ± 0.11 | 1.17 ± 0.12 | 1.23 ± 0.14
UniProt Q9Y2I7 | 0.978 ± 0.018 | 0.9781 ± 0.0019 | 0.993 ± 0.037 | 0.974 ± 0.017 | 0.958 ± 0.019 | 0.976 ± 0.034
UniProt Q9Y282 and related entries | 1.03 ± 0.041 | 1.03 ± 0.028 | 0.992 ± 0.049 | 1.01 ± 0.015 | 0.999 ± 0.056 | 1.02 ± 0.029
SLC5A6 (UniProt Q9Y289) | 1.02 ± 0.042 | 1.01 ± 0.022 | 1.01 ± 0.049 | 1 ± 0.042 | 1.01 ± 0.048 | 1.02 ± 0.021
MINPP1 (UniProt Q9UNW1) | 1.02 ± 0.015 | 1.01 ± 0.032 | 1.012 ± 0.0089 | 1.05 ± 0.053 | 1.03 ± 0.019 | 1.06 ± 0.039
STUB1 (UniProt Q9UNE7) | 0.989 ± 0.017 | 1.02 ± 0.014 | 0.977 ± 0.018 | 0.9527 ± 0.0059 | 0.938 ± 0.018 | 0.927 ± 0.019
AK3 (UniProt Q9UIJ7) | 0.911 ± 0.035 | 0.917 ± 0.021 | 0.9176 ± 0.0076 | 0.93 ± 0.041 | 0.927 ± 0.009 | 0.889 ± 0.055
CFL2 (UniProt Q9Y281) | 0.985 ± 0.012 | 0.963 ± 0.024 | 1.01 ± 0.022 | 0.995 ± 0.044 | 1.03 ± 0.03 | 1.02 ± 0.023
LEMD3 (UniProt Q9Y2U8) | 1.04 ± 0.013 | 1.05 ± 0.014 | 1.05 ± 0.028 | 0.994 ± 0.011 | 1.01 ± 0.013 | 1.01 ± 0.02
RUVBL2 (UniProt Q9Y230) | 1.02 ± 0.067 | 0.997 ± 0.079 | 0.979 ± 0.048 | 1.02 ± 0.063 | 0.994 ± 0.047 | 1.01 ± 0.082
DPP7 (UniProt Q9UHL4) | 0.977 ± 0.041 | 0.98 ± 0.025 | 1 ± 0.041 | 1.02 ± 0.044 | 1.01 ± 0.057 | 1.02 ± 0.048
DNAJB11 (UniProt Q9UBS4) | 0.978 ± 0.022 | 0.953 ± 0.052 | 0.942 ± 0.046 | 0.889 ± 0.058 | 0.894 ± 0.052 | 0.846 ± 0.061
UniProt Q9Y291 and related entries | 1.01 ± 0.015 | 1.02 ± 0.11 | 1 ± 0.1 | 0.994 ± 0.045 | 1 ± 0.078 | 0.997 ± 0.13
STX8 (UniProt Q9UNK0) | 0.999 ± 0.011 | 1 ± 0.039 | 1.01 ± 0.035 | 0.985 ± 0.044 | 0.969 ± 0.021 | 0.9382 ± 0.0082
ACAD8 (UniProt Q9UKU7) | 0.984 ± 0.019 | 0.949 ± 0.089 | 1.004 ± 0.0096 | 1.03 ± 0.033 | 1.03 ± 0.041 | 1.04 ± 0.043
UniProt Q9UKM9 and related entries | 0.912 ± 0.053 | 0.922 ± 0.035 | 0.882 ± 0.08 | 0.935 ± 0.03 | 0.889 ± 0.039 | 0.937 ± 0.11
KMT2B (UniProt Q9UMN6) | 1 ± 0.032 | 1.03 ± 0.066 | 1.02 ± 0.019 | 1.01 ± 0.036 | 0.995 ± 0.044 | 1.03 ± 0.043
UniProt Q9UKZ1 | 0.958 ± 0.0096 | 0.9834 ± 0.0049 | 0.995 ± 0.058 | 1.02 ± 0.038 | 1.01 ± 0.065 | 1.04 ± 0.053
NOB1 (UniProt Q9ULX3) | 0.972 ± 0.013 | 0.956 ± 0.027 | 0.984 ± 0.042 | 0.966 ± 0.023 | 1 ± 0.043 | 1 ± 0.047
AP3M1 (UniProt Q9Y2T2) | 0.953 ± 0.041 | 0.942 ± 0.062 | 0.993 ± 0.039 | 1.02 ± 0.044 | 1.05 ± 0.012 | 1 ± 0.041
UniProt Q9UMZ2 and related entries | 1.02 ± 0.035 | 1.05 ± 0.064 | 1.03 ± 0.031 | 0.978 ± 0.035 | 0.955 ± 0.021 | 0.981 ± 0.037
UniProt Q9UK76 | 1.08 ± 0.088 | 1.1 ± 0.08 | 1.03 ± 0.067 | 0.982 ± 0.092 | 0.893 ± 0.037 | 0.973 ± 0.1
ADD3 (UniProt Q9UEY8) | 0.998 ± 0.032 | 0.976 ± 0.052 | 1.01 ± 0.018 | 0.9833 ± 0.0087 | 1.01 ± 0.013 | 0.993 ± 0.019
WDR3 (UniProt Q9UNX4) | 1.07 ± 0.015 | 1.09 ± 0.1 | 1.33 ± 0.039 | 1.55 ± 0.026 | 1.8 ± 0.064 | 1.78 ± 0.15
UniProt Q9UIS9 and related entries | 1.01 ± 0.013 | 1.02 ± 0.04 | 1.01 ± 0.018 | 0.99007 ± 0.00053 | 0.9622 ± 0.0053 | 1 ± 0.032

Record cards, as listed above. Order of values: NP40-soluble protein abundance (concentration: 1mM)	NP40-soluble protein abundance (concentration: 2mM)	NP40-soluble protein abundance (concentration: 4mM)	NP40-soluble protein abundance (concentration: 6mM)	NP40-soluble protein abundance (concentration: 8mM)	NP40-soluble protein abundance (concentration: 10mM)
UniProt Q9UKM9 and related entries is listed as 0.912 ± 0.053	0.922 ± 0.035	0.882 ± 0.08	0.935 ± 0.03	0.889 ± 0.039	0.937 ± 0.11
UniProt Q9Y2I7 is listed as 0.978 ± 0.018	0.9781 ± 0.0019	0.993 ± 0.037	0.974 ± 0.017	0.958 ± 0.019	0.976 ± 0.034
